Laboratory results taken from PubChem BioAssay AID2551 (National Center for Advancing Translational Sciences (NCATS), 2010).
The whole screen tested about 310,000 compounds, of which about 17,000 (5.5%) were called active. This list was built around the results that the source calls inconclusive (neither active nor inactive); the mix of calls is not that of the screen. The call rests on the fitted dose curve; in most records, active means well fitted inhibition curve with a large enough effect; inconclusive means small, poorly fitted or top-dose-only effect, or effect the other way; inactive means no such curve, though single readings can be large or run the other way. Where the call is inconclusive, the potency comes from a doubtful curve fit.

The chains behind the UniProt entries cited, without tags or fusion partners. Where a name states a change or a piece, a line headed by the entry shows the natural chain unless it says otherwise.
UniProt P51450: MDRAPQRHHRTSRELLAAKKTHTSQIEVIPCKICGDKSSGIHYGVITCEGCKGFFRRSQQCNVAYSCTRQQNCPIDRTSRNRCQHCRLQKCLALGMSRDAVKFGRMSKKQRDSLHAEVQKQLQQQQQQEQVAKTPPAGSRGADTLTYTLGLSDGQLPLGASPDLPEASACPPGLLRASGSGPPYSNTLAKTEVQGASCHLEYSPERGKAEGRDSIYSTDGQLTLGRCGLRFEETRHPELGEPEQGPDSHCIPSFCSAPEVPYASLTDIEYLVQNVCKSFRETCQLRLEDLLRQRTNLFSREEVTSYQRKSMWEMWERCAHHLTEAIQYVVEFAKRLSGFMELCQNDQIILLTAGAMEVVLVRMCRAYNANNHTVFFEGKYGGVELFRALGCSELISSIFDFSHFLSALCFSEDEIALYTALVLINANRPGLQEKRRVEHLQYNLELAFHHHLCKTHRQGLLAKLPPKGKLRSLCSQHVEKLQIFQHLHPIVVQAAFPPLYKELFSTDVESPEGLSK

Each molecule was assayed against Nuclear receptor ROR-gamma (Mus musculus) (UniProt P51450) (assay: qHTS for inhibitors of ROR gamma transcriptional activity). Conditions: Drosophila S2 Gal4-RORgamma UAS-luciferase reporter, 20 h; activity change, negative = inhibition: at 53.6 µM (top of the series).
In short: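 ROR gamma transcriptional activity was tracked as Gal4-UAS luciferase output in stably transfected Drosophila Schneider cells, with compound added 1 hr before 700 uM copper sulfate induction and a 20 hr ambient-temperature incubation.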
Further: nearly all actives have a fitted effect of over 60% in size.
On the % scale 0 is the no-effect control and ±100 the full control effect; potency means the concentration at half of the fitted maximal effect.

Potency, active:
CC(C)Cc1c2c([nH]c(=S)c1C#N)CCCC2 6.31 µM
CCOc1ccc(/C=N/NC(=S)NC2CC3CC2C2C=CCC32)cc1 (centres undefined) 5.01 µM
Oc1ccc(Br)cc1-c1nc2cnccn2c1NC1CCCC1 22.4 µM
CCCS(=O)(=O)c1nnnn1-c1cccc(OC)c1 1.78 µM
CC(C)C(=O)Nc1ccc(NC(=S)NC(=O)c2ccc([N+](=O)[O-])cc2)cc1 10 µM
CCOc1cc(NC(=S)NCC2CCCO2)c(OCC)cc1NC(=O)c1ccc(OC)cc1 (centres undefined) 11.2 µM
C/C(=N\NC(=O)c1ccc(O)cc1)c1ccc(N2CCOCC2)cc1 1.78 µM
CC(C)C[C@@H](NC(=O)[C@H](Cc1ccccc1)NC(=O)c1cnccn1)B(O)O 0.0079 µM
Cc1ccc(NC(=S)N/N=C/c2c(C)[nH]c3ccccc23)cc1 2 µM
CN1CCN(C(=S)NC(=O)c2ccc(-c3ccccc3)cc2)CC1 0.0891 µM
CN(C)CC(=O)N1c2ccccc2CCc2ccc(NC(=O)c3ccc(N)cc3)cc21 7.94 µM
CCOC(=O)c1cnc(-n2nc(C)cc2C)nc1Nc1ccc(C)cc1 0.562 µM
CC(=O)c1cccc(N/C=C\C(=O)c2ccc(C)cc2)c1 2.24 µM
O=C(c1ccccn1)c1conc1C(=O)c1ccc(Br)cc1 12.6 µM

Potency, inconclusive:
COc1cc(/C=C2\SC(N3CCc4ccccc4C3)=NC2=O)cc(OC)c1OC 35.5 µM [activator, single point]
CCc1c(C(=O)OC)nnc2cc(C)nn12 5.62 µM [inhibitor, single point]
O=C(CCC1CCCC1)Nc1cccn(Cc2ccccc2Br)c1=O 8.91 µM [activator, partial curve]
Cc1ccc(C)c(OCCn2cc(/C=C(\C#N)C(=O)NCC3CCCO3)c3ccccc32)c1 (centres undefined) 14.1 µM [activator, partial curve]
COc1cc(CCNC(C)=O)c(C(=O)/C=C/c2cccc(OC)c2OC)cc1OC 2.82 µM [inhibitor, single point]
Cc1cc(C)nc(OC(C(=O)O)C(OCCc2ccccc2)(c2ccc(F)cc2)c2ccc(F)cc2)n1 (centres undefined) 35.5 µM [activator, single point]
O=C(c1ccsc1)N1CCCC(N2CCN(c3cccc(C(F)(F)F)c3)CC2)C1 (centres undefined) 22.4 µM [activator, single point]
Cc1cc(=O)n2[nH]cc(-c3ccccc3)c2n1 22.4 µM [inhibitor, single point]
COc1ccc(C(=O)O)c(OC)n1 35.5 µM [inhibitor, single point]
COc1ccc(NS(=O)(=O)c2cc(NC(=O)[C@@H](NC(=O)c3ccccc3)C(C)C)ccc2C)cc1 12.6 µM [inhibitor, partial curve]
CN(C)C(=O)c1cnc(Sc2ncc(C(F)(F)F)cc2Cl)n1C 6.31 µM [inhibitor, full curve, poor fit]
CC(NC(N)=O)C(=O)Nc1ccc(Cl)c(S(=O)(=O)Nc2ccc(Cl)cc2)c1 (centres undefined) 7.08 µM [activator, partial curve]
C=CCc1c(C)nc(-c2ccccc2)nc1N/N=C(\C)c1ccc(N)cc1 35.5 µM [inhibitor, single point]
OC(CCN1CCOCC1)c1ccccc1 (centres undefined) 5.62 µM [activator, single point]
CC1(c2ccc3ccccc3c2)NC(=O)N(CC(=O)NCc2cccs2)C1=O (centres undefined) 11.2 µM [activator, partial curve]
CN(CC(=O)Nc1ccc(N2CCOCC2)cc1)CC(=O)Nc1ccc(C(F)(F)F)cc1 12.6 µM [activator, single point]
Cc1[nH]c2ccccc2c1/C=C/C(=O)c1ccccc1 20 µM [activator, partial curve, poor fit]
Cc1cccc(Cn2c(N3CCCCC3C)nc3c2c(=O)[nH]c(=O)n3C)c1 (centres undefined) 10 µM [activator, partial curve]
CCCc1nc2ccccc2c(C(=O)OCC(=O)NCc2ccc3c(c2)OCO3)c1CC 14.1 µM [activator, single point]
CCc1noc(C)c1C(=O)Nc1nc(-c2ccc(Cl)cc2Cl)cs1 35.5 µM [activator, single point]
COc1cccc(/C=N/NC(=O)c2cccc([N+](=O)[O-])c2)c1OS(=O)(=O)c1ccccc1 22.4 µM [inhibitor, single point]
CCCCCCCCCCOC(=O)Cn1c(COc2ccccc2C)[n+](C)c2ccccc21 35.5 µM [inhibitor, single point]
CN(C)c1ncnc2ccc(-c3cccc(NS(C)(=O)=O)c3)cc12 20 µM [activator, partial curve]

2 successive records from above, for reference:
Potency, inconclusive:
Cc1ccc(C)c(OCCn2cc(/C=C(\C#N)C(=O)NCC3CCCO3)c3ccccc32)c1 (centres undefined) 14.1 µM [activator, partial curve]
COc1cc(CCNC(C)=O)c(C(=O)/C=C/c2cccc(OC)c2OC)cc1OC 2.82 µM [inhibitor, single point]

Next part.

Activity change, negative = inhibition, inactive:
COc1cc(CCC(=O)NCc2ccc3c(c2)OCO3)cc(OC)c1OC 2.19%
Cc1c2c(=O)n(-c3nc4ccccc4s3)nc-2cc(O)n1Cc1ccccc1 -37.2%
CCCc1n[nH]c(=S)n1Cc1ccco1 1.88%
CN(C)CCCN1c2ccccc2C(C)(C)c2ccccc21 2.14% [at 10 µM]
CC(CCc1ccccc1)NS(=O)(=O)c1ccc(Cl)c(C(=O)O)c1 (centres undefined) -21.1%
CC(=O)Nc1ccccc1C(=O)C(=O)Nc1cccc(C(=O)NC2CC2)c1 25.4%
O=C(CCN1CCN(CCO)CC1)Nc1ccc(C2CCCC2)cc1 -4.79%
CC(NCc1cc(Br)ccc1OCC(N)=O)C12CC3CC(CC(C3)C1)C2 (centres undefined) -19.3%
CC1(C)CC(=O)c2cc(NC(=O)c3ccccc3)c(=O)oc2C1 37%
CCOC(=O)Cn1nc(/C=C/c2ccc(C)cc2)ccc1=O 33%
COc1ccc(-n2c(COc3cccc4cccnc34)nnc2SCC(=O)O)cc1 -10.2%
CCc1ccc(Nc2nc(C)cc(C)n2)cc1 9.55%
